The target in the assay is Pcc1-4xFLAG (C. neoformans Pcc1 tagged with 4xFLAG at the C terminus) (Cryptococcus neoformans) (UniProt J9W0H7). In words: co-IP; whole-cell lysates of C. neoformans strains carrying both tagged alleles; anti-FLAG antibody overnight at 4°C, protein G Sepharose 6 h at 4°C, washed thrice with lysis buffer (50 mM Tris-Cl pH 7.5, 1% sodium deoxycholate, 1% Triton X-100) containing 50 mM NaCl; anti-HA western blot. A general note: In western blotting, separated proteins are transferred to a membrane and probed.

Sequences of proteins named here, by UniProt entry; tags and fusion partners are left off. A change or cut given only in a name is not applied to a line headed by its entry.
UniProt J9W0H7: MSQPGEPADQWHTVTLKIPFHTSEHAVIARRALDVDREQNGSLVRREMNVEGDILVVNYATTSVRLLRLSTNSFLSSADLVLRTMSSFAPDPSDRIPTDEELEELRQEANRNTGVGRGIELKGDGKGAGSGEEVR
UniProt J9VIU8: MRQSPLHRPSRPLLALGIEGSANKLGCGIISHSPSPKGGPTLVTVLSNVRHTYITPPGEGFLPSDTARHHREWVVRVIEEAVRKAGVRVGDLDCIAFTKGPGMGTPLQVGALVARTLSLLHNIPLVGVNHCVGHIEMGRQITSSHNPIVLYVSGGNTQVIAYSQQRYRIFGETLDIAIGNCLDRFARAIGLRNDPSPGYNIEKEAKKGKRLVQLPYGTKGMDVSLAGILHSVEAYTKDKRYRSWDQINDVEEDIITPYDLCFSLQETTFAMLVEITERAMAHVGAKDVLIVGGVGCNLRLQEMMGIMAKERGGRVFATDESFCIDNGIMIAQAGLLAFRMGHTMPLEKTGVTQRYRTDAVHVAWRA

No constants are given. Whether binding was seen depends on the method and setting. In cells and extracts the contact can be indirect. Binding can be weak; no strength is given.

“Kae1-6xHA (C. neoformans Kae1 tagged with 6xHA at the C terminus) (from UniProt J9VIU8)”: the binding result is “binds”.

These data come from article PMC9765431.
